± gives the standard deviation of the averaged measurements. This is a selection; strong and weak results do not stand in their true shares. Most entries show no effect beyond the scatter of the controls.

Protein sequences, listed by entry. Tags and fused reporters are not part of them. Lines headed by an entry give the natural chain unless they say otherwise; changes in a name come on top.
UniProt Q9BZD4: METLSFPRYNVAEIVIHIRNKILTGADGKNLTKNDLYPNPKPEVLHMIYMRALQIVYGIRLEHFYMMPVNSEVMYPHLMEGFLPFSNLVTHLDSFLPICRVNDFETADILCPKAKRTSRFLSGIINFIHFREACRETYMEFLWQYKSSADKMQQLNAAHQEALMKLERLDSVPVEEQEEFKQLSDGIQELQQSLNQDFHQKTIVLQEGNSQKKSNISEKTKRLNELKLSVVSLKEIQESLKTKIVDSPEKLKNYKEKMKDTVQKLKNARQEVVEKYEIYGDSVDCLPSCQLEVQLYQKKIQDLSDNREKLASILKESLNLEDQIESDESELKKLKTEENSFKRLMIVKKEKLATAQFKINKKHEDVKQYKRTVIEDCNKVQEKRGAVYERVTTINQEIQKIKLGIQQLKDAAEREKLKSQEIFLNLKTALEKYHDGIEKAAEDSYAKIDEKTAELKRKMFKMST
UniProt Q9BW71: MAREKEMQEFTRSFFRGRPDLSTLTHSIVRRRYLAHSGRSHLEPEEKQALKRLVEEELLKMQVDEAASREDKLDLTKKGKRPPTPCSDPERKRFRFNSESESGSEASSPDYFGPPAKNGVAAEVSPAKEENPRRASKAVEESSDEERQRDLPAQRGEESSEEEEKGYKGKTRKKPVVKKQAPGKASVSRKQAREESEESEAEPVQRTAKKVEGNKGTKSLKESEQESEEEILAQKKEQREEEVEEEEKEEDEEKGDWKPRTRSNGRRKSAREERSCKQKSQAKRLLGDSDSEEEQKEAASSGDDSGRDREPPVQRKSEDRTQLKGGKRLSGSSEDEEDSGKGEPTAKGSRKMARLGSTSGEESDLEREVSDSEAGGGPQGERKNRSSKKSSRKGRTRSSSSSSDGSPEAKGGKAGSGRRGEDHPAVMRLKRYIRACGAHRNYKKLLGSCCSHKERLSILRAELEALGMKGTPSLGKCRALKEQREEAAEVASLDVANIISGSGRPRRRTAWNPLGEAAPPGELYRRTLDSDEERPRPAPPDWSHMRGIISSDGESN
UniProt Q9BX95: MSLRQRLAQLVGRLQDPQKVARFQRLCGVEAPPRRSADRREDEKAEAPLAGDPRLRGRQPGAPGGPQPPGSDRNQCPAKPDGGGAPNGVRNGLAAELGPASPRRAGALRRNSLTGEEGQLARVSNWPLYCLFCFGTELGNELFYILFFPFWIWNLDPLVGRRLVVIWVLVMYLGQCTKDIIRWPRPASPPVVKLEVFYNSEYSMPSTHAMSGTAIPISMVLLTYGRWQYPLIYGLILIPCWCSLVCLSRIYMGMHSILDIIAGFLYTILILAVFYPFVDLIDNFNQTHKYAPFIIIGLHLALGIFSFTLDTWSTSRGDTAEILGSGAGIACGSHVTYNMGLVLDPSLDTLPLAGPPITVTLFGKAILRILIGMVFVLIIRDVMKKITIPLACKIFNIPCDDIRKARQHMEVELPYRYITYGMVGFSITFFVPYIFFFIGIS
UniProt Q9BRA2: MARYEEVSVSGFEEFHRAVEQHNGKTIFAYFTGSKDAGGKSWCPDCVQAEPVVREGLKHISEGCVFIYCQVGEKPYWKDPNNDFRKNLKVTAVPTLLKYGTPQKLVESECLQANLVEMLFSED
UniProt Q9BZH6: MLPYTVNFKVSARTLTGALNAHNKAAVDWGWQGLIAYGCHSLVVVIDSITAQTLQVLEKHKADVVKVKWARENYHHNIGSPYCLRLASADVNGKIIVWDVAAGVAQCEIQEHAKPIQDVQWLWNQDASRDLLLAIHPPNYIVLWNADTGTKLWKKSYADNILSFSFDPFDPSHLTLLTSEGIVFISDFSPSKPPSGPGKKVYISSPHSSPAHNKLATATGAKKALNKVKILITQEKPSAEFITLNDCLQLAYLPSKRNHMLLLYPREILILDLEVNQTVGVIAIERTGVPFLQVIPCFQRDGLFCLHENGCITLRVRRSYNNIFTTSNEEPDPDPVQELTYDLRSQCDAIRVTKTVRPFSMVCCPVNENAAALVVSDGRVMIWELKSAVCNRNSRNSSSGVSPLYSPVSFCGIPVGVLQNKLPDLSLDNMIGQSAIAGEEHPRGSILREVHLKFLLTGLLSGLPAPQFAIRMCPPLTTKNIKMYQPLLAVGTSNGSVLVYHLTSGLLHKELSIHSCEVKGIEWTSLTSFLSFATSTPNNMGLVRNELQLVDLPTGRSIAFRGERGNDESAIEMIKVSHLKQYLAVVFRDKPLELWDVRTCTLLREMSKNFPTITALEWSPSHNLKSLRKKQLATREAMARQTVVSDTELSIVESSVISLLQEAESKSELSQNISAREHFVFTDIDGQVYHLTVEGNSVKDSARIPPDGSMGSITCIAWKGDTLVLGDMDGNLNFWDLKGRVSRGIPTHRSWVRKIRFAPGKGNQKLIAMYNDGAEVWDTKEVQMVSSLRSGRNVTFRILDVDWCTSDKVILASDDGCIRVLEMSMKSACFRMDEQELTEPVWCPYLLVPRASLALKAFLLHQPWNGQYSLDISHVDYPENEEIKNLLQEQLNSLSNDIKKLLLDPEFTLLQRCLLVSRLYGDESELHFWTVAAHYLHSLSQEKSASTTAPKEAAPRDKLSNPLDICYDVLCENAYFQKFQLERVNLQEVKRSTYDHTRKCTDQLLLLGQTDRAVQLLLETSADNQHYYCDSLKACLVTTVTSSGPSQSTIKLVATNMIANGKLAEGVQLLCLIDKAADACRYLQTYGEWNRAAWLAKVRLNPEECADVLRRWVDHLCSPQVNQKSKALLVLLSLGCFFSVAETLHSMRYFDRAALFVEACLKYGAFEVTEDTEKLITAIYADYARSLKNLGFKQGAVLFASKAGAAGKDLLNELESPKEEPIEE
UniProt Q9BXS5: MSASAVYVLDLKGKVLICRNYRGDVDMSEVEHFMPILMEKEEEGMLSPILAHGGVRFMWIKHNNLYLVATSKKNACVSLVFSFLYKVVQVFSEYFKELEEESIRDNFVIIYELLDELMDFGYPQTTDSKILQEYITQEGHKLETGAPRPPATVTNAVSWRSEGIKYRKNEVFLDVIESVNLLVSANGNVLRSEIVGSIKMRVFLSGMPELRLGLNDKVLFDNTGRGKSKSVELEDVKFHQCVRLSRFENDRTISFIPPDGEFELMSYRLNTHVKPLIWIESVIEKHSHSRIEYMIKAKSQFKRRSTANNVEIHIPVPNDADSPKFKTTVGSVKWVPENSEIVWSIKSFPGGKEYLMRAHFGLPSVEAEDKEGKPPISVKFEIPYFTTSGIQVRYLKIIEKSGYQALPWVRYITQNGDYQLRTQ
UniProt Q9BSD7: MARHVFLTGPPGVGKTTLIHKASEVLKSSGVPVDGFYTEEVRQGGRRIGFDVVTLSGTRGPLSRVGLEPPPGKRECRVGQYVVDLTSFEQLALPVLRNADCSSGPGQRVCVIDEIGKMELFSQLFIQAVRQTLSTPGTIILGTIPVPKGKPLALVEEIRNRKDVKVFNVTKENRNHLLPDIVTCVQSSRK
UniProt Q9BQ75: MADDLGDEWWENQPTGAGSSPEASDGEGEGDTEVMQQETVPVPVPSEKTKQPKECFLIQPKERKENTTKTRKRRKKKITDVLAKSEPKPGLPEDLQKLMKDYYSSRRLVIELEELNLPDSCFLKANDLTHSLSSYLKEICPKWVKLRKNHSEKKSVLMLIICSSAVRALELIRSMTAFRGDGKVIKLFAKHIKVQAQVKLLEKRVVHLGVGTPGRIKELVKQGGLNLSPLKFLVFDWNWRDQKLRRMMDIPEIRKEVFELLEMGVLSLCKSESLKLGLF
UniProt Q9BUE0: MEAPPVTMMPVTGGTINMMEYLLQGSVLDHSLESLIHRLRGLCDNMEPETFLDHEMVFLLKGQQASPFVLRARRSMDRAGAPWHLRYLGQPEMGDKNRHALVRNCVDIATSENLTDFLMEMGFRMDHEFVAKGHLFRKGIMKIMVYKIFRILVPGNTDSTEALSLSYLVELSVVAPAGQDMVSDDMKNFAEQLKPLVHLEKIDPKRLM
UniProt Q9BRP1: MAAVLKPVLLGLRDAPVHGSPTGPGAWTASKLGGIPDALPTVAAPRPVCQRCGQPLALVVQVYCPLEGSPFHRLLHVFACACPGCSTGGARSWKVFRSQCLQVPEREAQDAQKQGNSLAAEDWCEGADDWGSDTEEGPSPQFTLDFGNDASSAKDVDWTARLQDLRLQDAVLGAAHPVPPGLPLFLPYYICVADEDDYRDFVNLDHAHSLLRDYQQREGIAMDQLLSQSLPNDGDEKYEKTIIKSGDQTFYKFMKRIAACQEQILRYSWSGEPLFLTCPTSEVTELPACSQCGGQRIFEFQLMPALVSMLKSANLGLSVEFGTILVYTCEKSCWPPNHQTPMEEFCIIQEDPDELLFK
UniProt Q9BVG9: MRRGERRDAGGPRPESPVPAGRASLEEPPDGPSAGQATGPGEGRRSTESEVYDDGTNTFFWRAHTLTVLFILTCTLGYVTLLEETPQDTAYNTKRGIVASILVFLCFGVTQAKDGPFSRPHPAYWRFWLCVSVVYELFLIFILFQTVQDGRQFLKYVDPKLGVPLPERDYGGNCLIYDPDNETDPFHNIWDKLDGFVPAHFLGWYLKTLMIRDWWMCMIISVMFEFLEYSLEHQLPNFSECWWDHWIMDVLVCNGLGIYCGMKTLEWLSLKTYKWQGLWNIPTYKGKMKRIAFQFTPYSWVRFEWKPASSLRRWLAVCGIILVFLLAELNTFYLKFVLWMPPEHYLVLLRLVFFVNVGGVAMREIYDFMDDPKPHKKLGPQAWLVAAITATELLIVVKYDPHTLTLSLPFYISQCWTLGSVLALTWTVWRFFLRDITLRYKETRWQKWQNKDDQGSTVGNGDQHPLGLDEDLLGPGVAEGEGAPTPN
UniProt Q99447: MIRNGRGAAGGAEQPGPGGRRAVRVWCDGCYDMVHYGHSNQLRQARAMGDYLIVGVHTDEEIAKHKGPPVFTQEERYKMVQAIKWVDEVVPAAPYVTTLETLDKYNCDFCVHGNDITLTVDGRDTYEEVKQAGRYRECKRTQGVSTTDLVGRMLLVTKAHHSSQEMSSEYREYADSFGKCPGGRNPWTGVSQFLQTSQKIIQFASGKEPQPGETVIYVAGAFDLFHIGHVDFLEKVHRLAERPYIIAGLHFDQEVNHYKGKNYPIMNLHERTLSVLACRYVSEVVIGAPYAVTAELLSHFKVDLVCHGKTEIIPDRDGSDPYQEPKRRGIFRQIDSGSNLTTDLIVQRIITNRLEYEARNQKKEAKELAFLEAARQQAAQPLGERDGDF
UniProt Q9BUI4: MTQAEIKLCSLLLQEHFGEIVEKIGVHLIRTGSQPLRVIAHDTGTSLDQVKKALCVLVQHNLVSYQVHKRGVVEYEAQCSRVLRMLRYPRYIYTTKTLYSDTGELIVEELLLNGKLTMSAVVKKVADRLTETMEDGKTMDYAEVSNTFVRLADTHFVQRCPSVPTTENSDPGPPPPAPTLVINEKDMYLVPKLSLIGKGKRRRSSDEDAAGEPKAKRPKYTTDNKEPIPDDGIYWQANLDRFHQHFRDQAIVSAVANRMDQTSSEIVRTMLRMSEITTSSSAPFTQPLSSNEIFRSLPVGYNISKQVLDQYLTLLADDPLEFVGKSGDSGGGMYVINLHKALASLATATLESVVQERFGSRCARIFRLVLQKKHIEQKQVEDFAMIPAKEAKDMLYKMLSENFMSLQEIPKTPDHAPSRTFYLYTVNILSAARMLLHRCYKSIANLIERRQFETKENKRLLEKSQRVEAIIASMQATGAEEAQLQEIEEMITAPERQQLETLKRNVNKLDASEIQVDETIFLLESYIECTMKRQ
UniProt Q9BVJ6: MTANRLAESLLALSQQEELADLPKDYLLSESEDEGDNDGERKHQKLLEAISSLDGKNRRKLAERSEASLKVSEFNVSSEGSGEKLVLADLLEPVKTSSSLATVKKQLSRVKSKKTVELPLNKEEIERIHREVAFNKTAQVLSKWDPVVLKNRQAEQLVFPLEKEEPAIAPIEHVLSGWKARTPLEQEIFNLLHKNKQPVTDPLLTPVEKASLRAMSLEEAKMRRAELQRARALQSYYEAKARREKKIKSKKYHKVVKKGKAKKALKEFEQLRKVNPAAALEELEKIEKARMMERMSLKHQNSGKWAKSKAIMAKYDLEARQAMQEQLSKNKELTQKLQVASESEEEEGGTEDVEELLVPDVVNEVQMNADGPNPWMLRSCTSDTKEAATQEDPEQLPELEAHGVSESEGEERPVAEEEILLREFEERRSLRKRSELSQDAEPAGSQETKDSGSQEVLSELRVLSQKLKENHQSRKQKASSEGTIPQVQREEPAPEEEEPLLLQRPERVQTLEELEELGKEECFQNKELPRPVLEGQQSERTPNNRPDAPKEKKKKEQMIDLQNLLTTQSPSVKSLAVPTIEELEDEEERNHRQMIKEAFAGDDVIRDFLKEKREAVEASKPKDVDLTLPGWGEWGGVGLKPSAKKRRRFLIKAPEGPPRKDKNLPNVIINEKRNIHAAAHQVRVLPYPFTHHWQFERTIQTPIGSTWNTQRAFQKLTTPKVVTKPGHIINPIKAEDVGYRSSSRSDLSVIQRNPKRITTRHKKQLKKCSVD

Compound in the assay: Nc1ncnc2c1ncn2[C@@H]1O[C@H](COP(=O)(O)OP(=O)(O)OP(=O)(O)O)[C@@H](O)[C@H]1O [adenosine triphosphate]
The assay is described as follows: NP40-soluble protein abundance relative to vehicle (solubility fold change) (ratio); higher = more soluble protein in presence of ATP. Particulars: concentration: 0.1mM. Put shortly: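 Data come from three independent experiments in which Dounce-homogenised Jurkat crude lysate was treated at eight concentrations from 0.1 to 10 mM. Treatment ran 10 min at room temperature and then 3 min at 37 °C, after which 0.8% NP40 and benzonase were added for 60 min at 4 °C before ultracentrifugation. The supernatant underwent TMT labelling and LC-MS/MS, and vsn-normalised intensities were expressed as fold change against the detergent-processed vehicle in each replicate.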
In the case of NUF2 (UniProt Q9BZD4), the NP40-soluble protein abundance turned out to be 0.961 ± 0.026.

Turning to UniProt Q99729-3|Q99729, the NP40-soluble protein abundance amounted to 0.979 ± 0.02. Take HIRIP3 (UniProt Q9BW71): the NP40-soluble protein abundance was 0.973 ± 0.015. The result for SGPP1 (UniProt Q9BX95) reads 1.05 ± 0.059; that for UniProt Q9BSJ8 and related entries, 1.04 ± 0.065; that for UniProt Q9BRX9, 1.03 ± 0.066. Regarding TXNDC17 (UniProt Q9BRA2), the NP40-soluble protein abundance came out at 1.16 ± 0.22.

As for UniProt Q9BWS9 and related entries, the NP40-soluble protein abundance amounted to 1.05 ± 0.092. In the case of WDR11 (UniProt Q9BZH6), the NP40-soluble protein abundance was 0.944 ± 0.019. With UniProt Q9BXS5 and related entries, the NP40-soluble protein abundance was 1.03 ± 0.12. The result for UniProt Q9BSD7 reads 1.02 ± 0.024; that for UniProt Q9BQ75 and related entries, 0.947 ± 0.05. The result for MED18 (UniProt Q9BUE0) reads 1.03 ± 0.065; that for PDCD2L (UniProt Q9BRP1), 1.05 ± 0.051; that for UniProt Q9BSI4-2, 1.08 ± 0.013.

For UniProt Q9BRP8-2|Q9BRP8, the NP40-soluble protein abundance is 0.934 ± 0.11. As to UniProt Q99733-2, the NP40-soluble protein abundance is 0.978 ± 0.067. The result for PTDSS2 (UniProt Q9BVG9) reads 1.06 ± 0.11. Take UniProt Q99447 and related entries: the NP40-soluble protein abundance was found to be 1.04 ± 0.1. The result for THUMPD3 (UniProt Q9BV44) reads 1 ± 0.076; that for CPNE1 (UniProt Q99829), 1.03 ± 0.061. On to GINS4 (UniProt Q9BRT9), for which the NP40-soluble protein abundance came to 0.962 ± 0.045. For the target POLR3C (UniProt Q9BUI4), the NP40-soluble protein abundance was 1.03 ± 0.036. On to NEU1 (UniProt Q99519), for which the NP40-soluble protein abundance turned out to be 0.9473 ± 0.0039. Regarding KATNAL1 (UniProt Q9BW62), the NP40-soluble protein abundance was 0.994 ± 0.072. With GTPBP4 (UniProt Q9BZE4), the NP40-soluble protein abundance amounted to 1.08 ± 0.052. For BACH2 (UniProt Q9BYV9), the NP40-soluble protein abundance was 1.03 ± 0.1. For UniProt Q9BZ95 and related entries, the NP40-soluble protein abundance stood at 1.06 ± 0.072. As to UniProt Q9BVJ6 and related entries, the NP40-soluble protein abundance turned out to be 1.01 ± 0.05.

Values taken from the supplement of paper PMC6411743.
